Assay results reported in the supplement of paper PMC3334620.
The full ranking holds about 33,000 sequences; the median of “E-score (-0.5 to 0.5)” is about -0.0014, and the highest 2% start at about 0.25. The list shows a part of the results.

What follows are sequences tested against T1, Cad1 (UniProt P24813) (assay: PBM E-score (8-mer binding enrichment) (E-score (-0.5 to 0.5)); higher = stronger / more preferred TF binding). Conditions: protein concentration: 100 nM; construct: GST-full length.
T1 sequence: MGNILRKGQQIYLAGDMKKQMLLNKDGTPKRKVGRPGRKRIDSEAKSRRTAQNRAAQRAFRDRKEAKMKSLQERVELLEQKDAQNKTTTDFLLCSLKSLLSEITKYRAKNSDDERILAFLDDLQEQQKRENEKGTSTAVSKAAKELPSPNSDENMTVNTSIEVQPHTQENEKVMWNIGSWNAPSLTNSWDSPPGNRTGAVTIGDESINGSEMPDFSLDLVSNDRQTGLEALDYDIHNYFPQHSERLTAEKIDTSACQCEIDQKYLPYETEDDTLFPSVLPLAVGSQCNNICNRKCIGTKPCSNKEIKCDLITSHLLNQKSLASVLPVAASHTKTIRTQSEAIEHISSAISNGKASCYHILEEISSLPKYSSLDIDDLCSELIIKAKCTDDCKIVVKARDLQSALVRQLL
In short: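 Universal all-10-mer Agilent arrays, fresh or stripped once, were converted to double-stranded form by primer extension. GST-tagged yeast transcription factors from PURExpress in vitro transcription/translation, full-length or DNA-binding domain only, were applied at about 100-200 nM and detected with fluorescent anti-GST. After masliner normalisation, the Universal PBM Analysis Suite scored each ungapped eight-base word together with its reverse complement by E-score.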

Sequence | PBM E-score
CTCCCATC | -0.149
CAGAGACA | -0.226
ACACCTCT | -0.0373
GACTATCC | -0.0732
ATTAGTAG | 0.0921
GCTGCAAA | 0.121
TTATGAAA | 0.0909
AGCTCGTC | -0.00865
ACAACTTC | 0.119
CGGCCTCA | 0.0551
GAATTAGA | 0.0025
ACACTTTG | 0.115
ATTGCAGA | -0.094
CCGTAACC | 0.0319
AGGGCACT | -0.201
ATCTCTTG | -0.0545
CTCCCATA | -0.213
GCTACGCC | -0.242
GAGGGAAA | -0.247
CCTCATGC | -0.287
ACAGCCAC | 0.0429
CACCCTGG | -0.233
ACTTCATG | 0.00178
CACCCGTA | -0.174
AAATTCAT | 0.148

Sequence | PBM E-score
ATCGTCCG | 0.148
ACGCGCCG | -0.108
AATCCATG | -0.0149
AGAGGAGC | -0.178
AACAGTTA | 0.00761
CCGCGAAC | 0.211
GGCGGAAA | 0.0304
AGGCTCAG | -0.181
CCTAGGTA | -0.116
CGGGAAAC | 0.14
ATACCCCC | -0.289
CCCCCACC | -0.425
ATACTCTC | -0.0105
CACGGGAA | -0.143
GAGAACCA | -0.0413
ACTCTGAG | -0.104
ACCATGGT | -0.057
CGGTCGTC | -0.164
CCCCTTTA | -0.215
CCCAGACG | -0.129
AGTCAGGG | -0.148
AGCCTTGC | -0.0869
ACTATGTC | 0.0779
ATAGGCTG | 0.0227
GCTTCGAC | -0.117

Fetched one by one from the list above (3):
Sequence | PBM E-score
GCTGCAAA | 0.121
CCCCCACC | -0.425
ACTCTGAG | -0.104

Continued:

Sequence | PBM E-score
ACGTAGGG | -0.284
GTGGTTGA | 0.0124
AGATGGAA | -0.0158
AATTTAGT | 0.212
TGCGGCCA | -0.03
CGAGCAGC | 0.0889
GAGGATCA | -0.0941
CCAAATGG | 0.0135
CGGTTCGC | -0.0427
AAGGCGTA | -0.135
ACACCCGC | 0.134
GACCAAAC | -0.0136
TAGTCCGA | -0.113
GCTCAGCA | 0.0822
AAGTATTA | -0.0007
CTTGGACA | -0.148
CTTACACC | -0.233
AGCCCTAT | -0.045
AAAAACAT | -0.0184
ACCCCTAC | -0.269
AATAGGTG | -0.0516
AGTTTTTA | 0.0256
AGGAAGCA | 0.0172
AGATTCAT | -0.0355
TGAACCCA | -0.017

Sequence | PBM E-score
CAGTCGCC | -0.0771
GAAACTTA | 0.156
CGTAGAAA | -0.0392
AAACTTTA | 0.041
AGCCGGAT | 0.061
AATCTGGT | 0.0701
CACAACAA | 0.0156
CGTACTAC | 0.0392
CCTGAGGA | 0.0598
CAAGTGGA | -0.0832
ATAGGATG | -0.0449
AATCTATA | 0.0946
AAGCGTAC | -0.113
CGGGGTGA | -0.119
AGCGAGGC | -0.0859
ATAGTAAG | 0.187
CACGTACA | -0.107
AGTCCGCC | -0.00907
CGCAACCG | 0.0752
GATTTAGA | -0.0069
GCGAGTTA | 0.0928
CAGCTTCG | 0.0121
GACTTCGA | -0.0474
TAACATGA | 0.0484
TCGGTGAA | -0.0335

Laid out differently: entries from further up.

| Sequence | PBM E-score |
| --- | --- |
| AATCTATA | 0.0946 |
| AAGCGTAC | -0.113 |
| CGGGGTGA | -0.119 |
| AGCGAGGC | -0.0859 |

Following part

Sequence | PBM E-score
AAGCTTAC | 0.192
ATTAAGCA | 0.0816
CAGTGCTC | -0.108
AAAACCTC | 0.156
CGCCCTGC | -0.128
GAGGGAGA | -0.15
CGAGGTTA | 0.049
CCTTTTTA | -0.144
TGAGGCCA | 0.102
ACTGTGCA | -0.00185
AGCCTACG | 0.0943
CATTGGAC | 0.00015
CGTAAATC | 0.0267
TAAATGCA | 0.14
TAATTAAA | 0.114
GGAGTCCA | -0.162
ATCATTGG | -0.0561
CATCCCTC | -0.0431
CAACGGCG | 0.0982
AGTGTTGC | 0.098
AAGAGAAG | -0.0243
AGCGTTGC | 0.041
AGTCAGAG | -0.058
TAATCGCA | 0.214
AGGTTCGC | -0.197

Sequence | PBM E-score
AATATGTA | 0.206
ACGACAGG | -0.0126
ACTCACCC | -0.119
ACTCCGCC | -0.0792
TAGAACGA | 0.0448
ATACACCC | 0.0749
CAAGTGAA | 0.0676
TGAACGAA | 0.0808
CGTTTTAG | -0.0529
GGACCACA | 0.137
AAAGTGTT | 0.201
GCTCAGGA | 0.0805
ACGAAGTA | -0.0512
ACTCGGGG | -0.188
GGACTGTA | -0.0478
ACATCGCT | 0.0942
CGGCAAAC | 0.181
AATGCGGT | -0.0537
CCTCCAGA | -0.208
AGGCAGAT | -0.0371
AGGTTCCA | -0.102
